The whole screen tested about 52,000 sequences, of which about 210 (0.4%) were called active.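 Rule for the calls: active = gene whose silencing raises cell survival under the drug, median off-target-corrected z-score across its silencing RNAs 2 or more; inactive = the rest.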 The list shows a part of the results.
experiment: Resistance to Poly (ADP-Ribose) Polymerase inhibitor: Gene Identification via Genome-wide siRNA Screen; conditions: mouse BRCA2 R2336H ES cells, olaparib, CellTiter-Glo viability; stronger effect = higher value
Procedure, shortened: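 Mouse BRCA2 R2336H ES cells were reverse-transfected with siRNA (20 nM final), treated at 48 h with 500 nM olaparib, and read by CellTiter-Glo after 72 h. Scores: MAD-based z per siRNA, median per gene, seed off-target correction.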

Sequence	z-score
GGACCACUCUGAUGAAGAGTT against Pou3f4	inactive: -2.16
GGAUGAGGACAAGUGCUCUTT against Agpat4	inactive: 0.0493
GCACAAAAUUCACUGUUAGTT against Olfr112	inactive: 2.16
GGCUAGUACCAACAUGACCTT against 1600015I10Rik	inactive: 2.25
GGAGGAGACUCAGCAGAUUTT against Gzmn	inactive: -1.95
GGCUUGGUGGGACAGAUAUTT against 5730568A12Rik	inactive: -1.4
CGUAAUGCAUUACCUCAAUTT against 9630019K15Rik	inactive: -0.645
GGACAGCCAGUAAAUACAUTT against Igsf7	inactive: 1.26
GGAGAAUUAGCCAACACAGTT against Ywhah	inactive: 1.03
GGAUUUCAAGCAAGAUUACTT against Mfn1	inactive: -0.00662
GCCUCUGAGAUAAAAUUUGTT against Copeb	inactive: -0.419
CGAUUGCUUUUCGAGACUGTT against Olfr1404	inactive: -1.63
GGUUAAAACCUCUUUCUGATT against 2610017G09Rik	inactive: 0.85
GGGACUACCUGAAUAAUGUTT against Tm4sf12	inactive: 0.6
GCCGGGUUCGAGAGUUAAGTT against Ptpn11	inactive: -0.376
GGUGUUGAACAAAUUAACUTT against LOC226169	inactive: 1.93
GAACAUGGAAAGCAGCAUUTT against Sprrl10	inactive: 0.471
CCUUUGUGCAAUGCUACACTT against 4921517D21Rik	inactive: 0.593
GGAUCAGCAUGUUUGGAUUTT against Olfr653	inactive: -0.23
GCUCCAAGUCAAGGAAAAUTT against 6030423D04Rik	inactive: -2.53
GCACUUUAAAAGAAUCACUTT against Slc2a12	inactive: -0.238
GGAGAGACACUUUUUGAAATT against 4932413O14Rik	inactive: 0.201
GCUGUGUUCUAACUAACUATT against Aldh9a1	inactive: 0.507
GGACAAACAAGUGAAAUACTT against Morf4l1	inactive: -0.354
GGGAAAAUUUCCUCUGACUTT against 2200003E03Rik	inactive: -2.1
GCAUUCGAAGCUCUUCUAATT against 4930474M22Rik	inactive: -0.432

Some of the entries above in a different format:

| Sequence | z-score |
| --- | --- |
| GGACAGCCAGUAAAUACAUTT against Igsf7 | inactive: 1.26 |
| GCCUCUGAGAUAAAAUUUGTT against Copeb | inactive: -0.419 |
| GCUGUGUUCUAACUAACUATT against Aldh9a1 | inactive: 0.507 |
| GGGAAAAUUUCCUCUGACUTT against 2200003E03Rik | inactive: -2.1 |

(further entries)

Sequence	z-score
GGGAUACAAUGUAACAUACTT against L1cam	inactive: 0.404
CCGAGUAAGAAGGACGAUATT against Sh3tc1	inactive: 1.05
CCUGGCAGUAGGUUUGUAATT against Plcd3	inactive: -0.553
GGCACUAGGUGGAGUCAUUTT against Slco1b2	inactive: -0.273
GGUUAAAGGAGCAGUCUAUTT against Dbn1	inactive: -1.65
GGGAAUGCUCCAAACGACATT against Bsg	inactive: -0.383
GGAACUCAGUCAGGACCAATT against 0610008F07Rik	inactive: 0.986
GGUAUCUUUAGGUUUCUGGTT against V2r14	inactive: -0.00592
GGCUCUUUCACACCUGGUATT against Scgb3a2	inactive: -0.915
GGAACUCCUCAAACGAAGGTT against Bmp3	inactive: 0.312
CGUGGACCUAUCCCACAAUTT against 9530051K01Rik	inactive: -0.879
GGCAUGUAUCUCAACAUGUTT against Fuk	inactive: 0.589
AACCAGUCCUUGAAAAGAGTT against Olfr128	inactive: 1.98
CCUAAAAACUCUGGAUUCUTT against A630054L15Rik	inactive: 1.93
GCUGUCCCGAGCUGAACAATT against Nell2	inactive: -0.838
GGAACUCGAGUUUAUCCAUTT against 1700020N01Rik	inactive: -1.04
CCUAGGUCAUAUUUCUCCATT against Bgn	inactive: 0.756
GGCAUAGGCAUUUUCAAAATT against Gucy2f	inactive: 0.332
GGUUUUGGGUCUAUGCUUCTT against BC031781	inactive: 0.579
GCUUACAAGUUGCUACUGGTT against Dnajc8	inactive: -0.635
GGUUAAAAAUAAUGUGGGCTT against Sval2	inactive: 0.814
GCUGUUGGUGGAAUGGAAGTT against Slc5a11	inactive: 1.03
GGGAUCCAGUUGAGGAUCUTT against 5730467H21Rik	inactive: 1.34
CGUCCAGAGACCAUUAUAATT against D14Ertd581e	inactive: 1.37
GCAGGAUGUGACAGAUACATT against Pdcd2	inactive: -2.09
GGGCAUGCAGAUAAAAUAATT against Akr1b8	inactive: -1.7

Sequence	z-score
CCAACUUCCAAGCUUAAAATT against Ucp3	inactive: 0.451
GGACUGUUAGCUCGCUUUGTT against Pxmp3	inactive: -0.0586
GGUUAAGGAAUAGUAACUCTT against LOC114601	inactive: -0.326
GGGAGUGAAGUUUCACAGATT against Slamf6	inactive: -0.0337
CCACCUAUCUCUAACUACCTT against Mrpl40	inactive: 0.593
GGUCAGGCUGAGGAAUUCATT against Cyp2s1	inactive: -0.897
GAACUACCUGGACUUCCACTT against Cox6b	inactive: 0.266
GGGUACACCUUGCCGAUGUTT against B130008E12Rik	inactive: -0.0846
CCUAAUGCAGUCCAGAUGGTT against 4930432J16Rik	inactive: -3.08
UCACUUGAGUUGACCAACATT against Olfr1347	inactive: -0.35
GCACAACAGCUAGCAAAUATT against Gm347	inactive: -1.08
GGAUAUAGAGCUAAGUAAGTT against Dgka	inactive: -0.0954
GCCGGAAGAAACUCAUGCUTT against Mad2l1bp	inactive: -0.104
GGCCCAGAACAAGAUCAAGTT against Ldb3	inactive: 0.159
GAUGCUAACCAACCUUGGATT against Olfr134	inactive: -0.129
CGCGCUGAUAUUAACGGUGTT against Olfr70	inactive: -0.579
GGUGGCUAUGGAAACUACCTT against Thrap3	inactive: -2.03
GCUAACAGGUCAUUUAUCCTT against 2310075C12Rik	inactive: 0.391
GCCUAUUUCCGUGAACCCGTT against Mgmt	inactive: -0.718
GGAGGAAUUUCAGUUUCUGTT against Pml	inactive: 0.306
CCGAUCUUUCCCUUAUCUUTT against Vamp2	inactive: -0.314
GGACCAUUUUCUAACAGACTT against Slc12a9	inactive: 1.03
GCAACGGAGCGGAAAAGAATT against D230039L06Rik	inactive: -2.44
GGAUUUACUGUGGUAUGGGTT against Slc16a13	inactive: 0.915
GCAGUACUAAGGAAGAUAUTT against 4921532K09Rik	inactive: -0.416
GGAAACCUGUUUGAUUUUGTT against Aasdhppt	inactive: 1.07

Sequence	z-score
GCUUCAGGAAGAGUUGCAGTT against Asb7	inactive: 0.339
GGUAAGAAAACUGACCUUATT against C130068O12Rik	inactive: -1.37
GGUAAUGCCCUAUACUUCATT against Sgcd	inactive: -1.73
GGAGCAUCCUGGCAAACAGTT against Ostb	inactive: -1.64
GGAACUUAAUGACUCUGUGTT against Fv1	inactive: -0.00429
GGAAGAUAUUCACAGGGUATT against Wnt9b	inactive: -1.33
GCAUUUCCUGUGGUCUAUGTT against Itlnb	inactive: -1.51
GGUCUUUAUCUACCAUGGGTT against Itga7	inactive: -0.0997
GGACGGACAAAUUGAUGCUTT against Sri	inactive: -0.434
GGUGGAAUACUUGGAGCAGTT against Gstm4	inactive: 0.295
CCUGCAUUAUUUAUGAAAGTT against Mfap3l	inactive: -1.49
GGAGGAUGCUGCCUAUGACTT against B4galt2	inactive: -0.428
GGCGGUUUUAGUGAAUAACTT against Golph2	inactive: 0.0942
GGGCAAUCUGCUAUUCUCUTT against C920005C14Rik	inactive: -0.755
GCCGUGUUCAUGAAUAAACTT against Glce	inactive: 0.0698
GUUCCCGUUCUACGAGAAGTT against Foxl2	inactive: 1.76
GGAAGGACAACACUGCACCTT against Tnfrsf5	inactive: 0.657
GGUCACCAUAGAUCGGCAATT against Slamf7	inactive: -1.04
GGGACUGCUAGUAAAGUUCTT against Cabin1	inactive: -0.712
GCAAUGGACACUGUAUCAATT against Gab2	inactive: 1.5
GGCGGGUUUGCUGAAUAACTT against BC004853	inactive: 0.88
CGAGAGCGAGUGAAAGAAGTT against Eif4enif1	inactive: -1.67
GCGAUAUUGACUGUGUAUATT against Ypel5	inactive: -0.143
GGAAAAAGUUCCAAAAGAATT against Kif21b	inactive: -1.46
GGGCUGUUCCAAAACACAGTT against A930017E24Rik	inactive: -0.0576

As a working copy, some entries already given.
Sequence	z-score
GGAAGGACAACACUGCACCTT against Tnfrsf5	inactive: 0.657
GGUCACCAUAGAUCGGCAATT against Slamf7	inactive: -1.04

— PubChem BioAssay AID1347423 (Functional Genomics Laboratory (NCATS/FGL), 2020)
